Test results taken from the supplement of paper PMC6411743.
± gives the standard deviation of the averaged measurements. The entries are a selection whose mix differs from that of the whole data set.

Amino acid sequences for entries named in this document (tags omitted). A change or cut given only in a name is not applied to a line headed by its entry.
UniProt P62072: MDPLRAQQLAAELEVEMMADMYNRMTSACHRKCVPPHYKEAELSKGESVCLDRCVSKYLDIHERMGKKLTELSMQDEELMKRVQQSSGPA
UniProt P57772: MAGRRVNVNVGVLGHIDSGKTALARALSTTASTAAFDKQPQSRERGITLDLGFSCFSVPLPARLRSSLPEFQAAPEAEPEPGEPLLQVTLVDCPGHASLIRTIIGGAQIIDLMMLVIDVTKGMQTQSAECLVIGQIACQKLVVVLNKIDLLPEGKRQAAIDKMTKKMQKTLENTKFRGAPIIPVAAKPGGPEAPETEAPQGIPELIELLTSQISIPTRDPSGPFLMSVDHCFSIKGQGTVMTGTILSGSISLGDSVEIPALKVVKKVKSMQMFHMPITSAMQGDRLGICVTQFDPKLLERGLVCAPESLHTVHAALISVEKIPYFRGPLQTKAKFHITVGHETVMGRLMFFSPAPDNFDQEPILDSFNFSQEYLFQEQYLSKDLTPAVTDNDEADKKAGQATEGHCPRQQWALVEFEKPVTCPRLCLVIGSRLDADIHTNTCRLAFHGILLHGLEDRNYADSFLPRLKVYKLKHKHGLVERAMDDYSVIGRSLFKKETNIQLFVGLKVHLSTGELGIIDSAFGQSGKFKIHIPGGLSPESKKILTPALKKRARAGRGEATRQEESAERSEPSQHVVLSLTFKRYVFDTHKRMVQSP
UniProt P57088: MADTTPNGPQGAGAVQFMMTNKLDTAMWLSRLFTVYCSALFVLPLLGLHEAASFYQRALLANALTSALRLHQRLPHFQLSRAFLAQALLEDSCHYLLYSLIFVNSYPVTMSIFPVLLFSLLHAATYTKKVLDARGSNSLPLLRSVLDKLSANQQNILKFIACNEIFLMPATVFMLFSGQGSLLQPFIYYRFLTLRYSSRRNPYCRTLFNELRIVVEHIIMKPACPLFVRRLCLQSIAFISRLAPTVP
UniProt P60981: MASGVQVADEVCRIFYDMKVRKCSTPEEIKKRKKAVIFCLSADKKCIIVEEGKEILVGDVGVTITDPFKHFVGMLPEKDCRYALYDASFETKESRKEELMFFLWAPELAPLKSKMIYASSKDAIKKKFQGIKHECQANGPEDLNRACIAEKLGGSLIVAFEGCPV
UniProt P62136, whole entry: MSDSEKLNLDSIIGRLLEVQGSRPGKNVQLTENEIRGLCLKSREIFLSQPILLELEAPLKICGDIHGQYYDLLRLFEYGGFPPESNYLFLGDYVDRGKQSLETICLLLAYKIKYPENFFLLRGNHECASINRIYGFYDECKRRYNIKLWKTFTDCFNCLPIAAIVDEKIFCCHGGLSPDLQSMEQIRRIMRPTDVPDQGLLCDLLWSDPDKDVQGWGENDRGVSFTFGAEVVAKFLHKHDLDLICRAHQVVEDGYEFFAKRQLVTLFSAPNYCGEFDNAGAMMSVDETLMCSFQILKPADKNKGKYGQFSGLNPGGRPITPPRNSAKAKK
UniProt P68104, whole entry: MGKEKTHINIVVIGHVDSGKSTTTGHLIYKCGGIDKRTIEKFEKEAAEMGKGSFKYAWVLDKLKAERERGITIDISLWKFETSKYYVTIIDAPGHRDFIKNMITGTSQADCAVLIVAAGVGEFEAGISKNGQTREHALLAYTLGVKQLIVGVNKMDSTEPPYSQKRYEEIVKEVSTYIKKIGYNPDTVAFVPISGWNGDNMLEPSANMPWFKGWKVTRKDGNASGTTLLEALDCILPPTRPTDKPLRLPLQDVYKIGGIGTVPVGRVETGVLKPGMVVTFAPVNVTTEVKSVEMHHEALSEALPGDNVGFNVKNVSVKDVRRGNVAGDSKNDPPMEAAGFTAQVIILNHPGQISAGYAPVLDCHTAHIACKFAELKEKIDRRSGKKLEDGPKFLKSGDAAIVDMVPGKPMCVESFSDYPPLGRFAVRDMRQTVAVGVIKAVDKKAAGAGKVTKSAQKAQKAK
UniProt P60900, whole entry: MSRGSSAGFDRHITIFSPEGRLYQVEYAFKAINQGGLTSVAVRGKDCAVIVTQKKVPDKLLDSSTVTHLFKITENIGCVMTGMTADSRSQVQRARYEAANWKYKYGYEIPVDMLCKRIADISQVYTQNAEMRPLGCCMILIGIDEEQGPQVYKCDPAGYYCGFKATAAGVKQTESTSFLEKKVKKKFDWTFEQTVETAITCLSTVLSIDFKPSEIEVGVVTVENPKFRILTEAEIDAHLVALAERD
UniProt P61758, whole entry: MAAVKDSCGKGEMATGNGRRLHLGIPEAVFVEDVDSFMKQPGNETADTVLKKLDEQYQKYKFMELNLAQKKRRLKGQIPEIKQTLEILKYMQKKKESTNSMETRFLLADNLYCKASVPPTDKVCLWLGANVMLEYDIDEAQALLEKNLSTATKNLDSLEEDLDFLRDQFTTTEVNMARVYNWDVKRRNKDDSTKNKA
UniProt P53396: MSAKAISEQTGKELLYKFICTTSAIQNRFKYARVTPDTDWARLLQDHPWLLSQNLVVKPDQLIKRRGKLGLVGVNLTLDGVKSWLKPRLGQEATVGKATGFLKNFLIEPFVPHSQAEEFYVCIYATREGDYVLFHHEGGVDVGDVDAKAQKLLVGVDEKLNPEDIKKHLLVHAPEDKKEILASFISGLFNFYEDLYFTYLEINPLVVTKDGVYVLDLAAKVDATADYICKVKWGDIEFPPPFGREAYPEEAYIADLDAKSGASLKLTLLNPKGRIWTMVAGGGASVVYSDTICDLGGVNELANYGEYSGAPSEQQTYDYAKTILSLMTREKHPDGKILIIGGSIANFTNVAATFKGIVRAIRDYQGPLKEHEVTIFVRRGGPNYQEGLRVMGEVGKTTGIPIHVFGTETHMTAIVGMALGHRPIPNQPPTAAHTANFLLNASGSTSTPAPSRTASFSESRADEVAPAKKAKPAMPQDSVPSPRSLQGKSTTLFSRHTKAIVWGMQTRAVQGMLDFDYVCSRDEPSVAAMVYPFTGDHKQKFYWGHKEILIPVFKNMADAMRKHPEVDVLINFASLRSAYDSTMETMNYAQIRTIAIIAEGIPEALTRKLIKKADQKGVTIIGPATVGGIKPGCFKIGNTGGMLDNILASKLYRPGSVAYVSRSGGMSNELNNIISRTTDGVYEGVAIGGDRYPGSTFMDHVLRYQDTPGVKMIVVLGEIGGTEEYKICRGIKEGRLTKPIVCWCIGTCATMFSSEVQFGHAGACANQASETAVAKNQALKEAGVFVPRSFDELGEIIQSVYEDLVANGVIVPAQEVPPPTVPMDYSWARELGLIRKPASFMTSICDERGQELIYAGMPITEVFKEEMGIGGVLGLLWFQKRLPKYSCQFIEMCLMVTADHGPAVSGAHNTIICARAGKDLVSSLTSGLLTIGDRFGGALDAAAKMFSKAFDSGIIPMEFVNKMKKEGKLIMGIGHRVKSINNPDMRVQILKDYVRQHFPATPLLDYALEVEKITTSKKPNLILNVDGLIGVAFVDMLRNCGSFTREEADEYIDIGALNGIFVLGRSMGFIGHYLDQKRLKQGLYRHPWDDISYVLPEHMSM
UniProt P82970: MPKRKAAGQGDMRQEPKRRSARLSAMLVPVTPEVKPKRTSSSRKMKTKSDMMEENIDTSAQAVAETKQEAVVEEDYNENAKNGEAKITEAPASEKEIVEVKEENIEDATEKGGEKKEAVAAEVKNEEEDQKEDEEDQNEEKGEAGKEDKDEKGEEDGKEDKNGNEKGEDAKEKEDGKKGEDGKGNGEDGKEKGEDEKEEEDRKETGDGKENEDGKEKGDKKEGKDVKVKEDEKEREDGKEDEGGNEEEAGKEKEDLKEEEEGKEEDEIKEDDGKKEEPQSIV
UniProt P56182: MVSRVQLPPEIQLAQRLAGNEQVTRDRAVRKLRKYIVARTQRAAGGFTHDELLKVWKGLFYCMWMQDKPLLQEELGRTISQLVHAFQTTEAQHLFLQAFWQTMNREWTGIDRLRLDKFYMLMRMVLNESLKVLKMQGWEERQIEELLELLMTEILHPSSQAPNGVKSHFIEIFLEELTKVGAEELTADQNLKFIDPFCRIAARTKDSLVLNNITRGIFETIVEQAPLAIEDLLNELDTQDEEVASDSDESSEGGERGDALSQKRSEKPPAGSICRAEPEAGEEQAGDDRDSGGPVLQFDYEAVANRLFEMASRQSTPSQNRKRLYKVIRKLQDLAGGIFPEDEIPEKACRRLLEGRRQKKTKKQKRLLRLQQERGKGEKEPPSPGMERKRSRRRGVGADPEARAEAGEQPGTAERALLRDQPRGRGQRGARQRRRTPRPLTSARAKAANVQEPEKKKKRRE
UniProt P84090, whole entry, looked up: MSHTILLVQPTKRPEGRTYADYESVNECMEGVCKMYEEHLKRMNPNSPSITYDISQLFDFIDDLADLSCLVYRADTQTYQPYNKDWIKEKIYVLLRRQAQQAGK
UniProt P58557: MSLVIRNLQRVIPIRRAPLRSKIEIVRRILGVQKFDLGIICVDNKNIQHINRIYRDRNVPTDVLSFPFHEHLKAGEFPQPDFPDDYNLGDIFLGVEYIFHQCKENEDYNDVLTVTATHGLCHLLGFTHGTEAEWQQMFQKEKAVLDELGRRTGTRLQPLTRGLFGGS
UniProt P86790: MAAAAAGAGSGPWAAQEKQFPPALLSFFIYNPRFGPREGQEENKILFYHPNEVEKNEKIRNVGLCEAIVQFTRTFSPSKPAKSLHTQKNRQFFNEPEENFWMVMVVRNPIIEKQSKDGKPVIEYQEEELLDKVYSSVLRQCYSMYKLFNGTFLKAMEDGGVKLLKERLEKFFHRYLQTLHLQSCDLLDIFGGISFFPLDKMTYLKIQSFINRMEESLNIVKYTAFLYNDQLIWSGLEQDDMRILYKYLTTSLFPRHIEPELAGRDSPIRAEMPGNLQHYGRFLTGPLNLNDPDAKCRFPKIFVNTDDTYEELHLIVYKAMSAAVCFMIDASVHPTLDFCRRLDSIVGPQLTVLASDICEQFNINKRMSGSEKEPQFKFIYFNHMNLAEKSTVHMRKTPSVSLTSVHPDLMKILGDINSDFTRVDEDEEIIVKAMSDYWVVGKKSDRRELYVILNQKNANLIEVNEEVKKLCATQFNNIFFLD
UniProt P55265: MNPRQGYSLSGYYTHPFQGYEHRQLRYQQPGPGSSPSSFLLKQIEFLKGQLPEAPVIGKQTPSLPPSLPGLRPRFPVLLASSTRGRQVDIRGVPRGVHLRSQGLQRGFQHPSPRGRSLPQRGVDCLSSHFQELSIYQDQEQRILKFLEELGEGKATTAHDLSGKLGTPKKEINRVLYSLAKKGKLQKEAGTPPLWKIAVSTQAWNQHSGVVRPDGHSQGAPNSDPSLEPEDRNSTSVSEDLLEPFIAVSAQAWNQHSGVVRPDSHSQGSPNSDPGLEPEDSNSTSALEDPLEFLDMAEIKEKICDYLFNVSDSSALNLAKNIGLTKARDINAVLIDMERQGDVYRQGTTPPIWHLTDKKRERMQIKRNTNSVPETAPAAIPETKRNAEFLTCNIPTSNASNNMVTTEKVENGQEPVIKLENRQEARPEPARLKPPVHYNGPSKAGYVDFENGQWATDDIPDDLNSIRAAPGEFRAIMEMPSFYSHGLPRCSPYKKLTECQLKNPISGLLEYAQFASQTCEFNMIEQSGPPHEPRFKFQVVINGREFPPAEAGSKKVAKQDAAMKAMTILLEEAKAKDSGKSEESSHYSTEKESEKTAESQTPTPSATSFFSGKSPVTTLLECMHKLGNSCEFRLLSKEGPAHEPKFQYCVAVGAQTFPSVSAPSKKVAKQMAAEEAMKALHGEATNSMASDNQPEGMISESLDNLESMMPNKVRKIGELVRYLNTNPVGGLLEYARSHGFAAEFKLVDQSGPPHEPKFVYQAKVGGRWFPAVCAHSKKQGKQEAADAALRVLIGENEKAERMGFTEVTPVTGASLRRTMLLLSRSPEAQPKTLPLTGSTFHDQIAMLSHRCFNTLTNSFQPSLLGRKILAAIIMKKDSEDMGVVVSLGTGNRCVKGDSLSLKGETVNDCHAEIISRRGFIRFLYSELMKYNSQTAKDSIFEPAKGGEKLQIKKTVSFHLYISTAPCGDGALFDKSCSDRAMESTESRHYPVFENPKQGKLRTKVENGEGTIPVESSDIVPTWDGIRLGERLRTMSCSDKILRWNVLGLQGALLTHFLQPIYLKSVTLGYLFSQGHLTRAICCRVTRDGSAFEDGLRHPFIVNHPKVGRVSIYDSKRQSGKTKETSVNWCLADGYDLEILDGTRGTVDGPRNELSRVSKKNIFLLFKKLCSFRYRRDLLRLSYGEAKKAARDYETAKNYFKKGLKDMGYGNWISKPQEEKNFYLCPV
UniProt P54619: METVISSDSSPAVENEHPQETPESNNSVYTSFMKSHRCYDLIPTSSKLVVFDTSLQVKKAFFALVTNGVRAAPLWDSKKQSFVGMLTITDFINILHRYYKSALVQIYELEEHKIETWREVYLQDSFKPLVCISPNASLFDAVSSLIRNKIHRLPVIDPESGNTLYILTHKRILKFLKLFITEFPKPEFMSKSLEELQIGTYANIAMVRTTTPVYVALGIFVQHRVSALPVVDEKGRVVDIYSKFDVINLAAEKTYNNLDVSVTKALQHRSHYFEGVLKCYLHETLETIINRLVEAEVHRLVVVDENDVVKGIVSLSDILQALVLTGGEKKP

Compound: Nc1ncnc2c1ncn2[C@@H]1O[C@H](COP(=O)(O)OP(=O)(O)OP(=O)(O)O)[C@@H](O)[C@H]1O [adenosine triphosphate]
Assay: NP40-soluble protein abundance relative to vehicle (solubility fold change) (ratio); higher = more soluble protein in presence of ATP
How it was run: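 Jurkat crude lysate prepared with a Dounce homogeniser was treated at eight concentrations spanning 0.1 to 10 mM, 10 min at room temperature then 3 min at 37 °C. Solubilisation with 0.8% NP40 and benzonase and ultracentrifugation preceded TMT labelling of the supernatant for LC-MS/MS. Fold change against the detergent-processed vehicle was determined per replicate from vsn-normalised intensities, across three independent experiments.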

Target	NP40-soluble protein abundance (concentration: 1mM)	NP40-soluble protein abundance (concentration: 2mM)	NP40-soluble protein abundance (concentration: 4mM)	NP40-soluble protein abundance (concentration: 6mM)	NP40-soluble protein abundance (concentration: 8mM)	NP40-soluble protein abundance (concentration: 10mM)
UniProt P62072	0.974 ± 0.055	0.971 ± 0.12	1 ± 0.14	1.04 ± 0.052	0.957 ± 0.089	0.918 ± 0.12
NCKAP1L (UniProt P55160)	1.06 ± 0.13	1.02 ± 0.099	0.997 ± 0.065	0.913 ± 0.11	1.04 ± 0.047	0.985 ± 0.07
EEFSEC (UniProt P57772)	1 ± 0.065	1.01 ± 0.053	1.02 ± 0.025	1.01 ± 0.075	1.03 ± 0.016	1.05 ± 0.038
UniProt P57088 and related entries	0.851 ± 0.1	0.96 ± 0.13	0.924 ± 0.069	0.784 ± 0.069	0.914 ± 0.093	1 ± 0.12
DSTN (UniProt P60981)	0.961 ± 0.049	0.946 ± 0.015	0.891 ± 0.028	0.93 ± 0.069	0.904 ± 0.043	0.906 ± 0.05
PPP1CA (UniProt P62136)	0.967 ± 0.042	0.94 ± 0.052	0.932 ± 0.028	0.978 ± 0.011	0.96 ± 0.049	0.951 ± 0.044
UniProt P98194-5|P98194-6|P98194-7|P98194-8|P98194-9|B4E2Q0 and related entries	1.05 ± 0.1	1.06 ± 0.058	1.05 ± 0.07	0.984 ± 0.13	1.04 ± 0.051	1.02 ± 0.045
EEF1A1 (UniProt P68104)	0.965 ± 0.048	0.972 ± 0.065	0.875 ± 0.036	0.957 ± 0.033	0.94 ± 0.028	0.932 ± 0.05
UniProt P60842	1.08 ± 0.086	1.06 ± 0.06	1.04 ± 0.045	1.03 ± 0.12	1.1 ± 0.039	1.1 ± 0.048
UniProt P61764 and related entries	0.9886 ± 0.0036	0.963 ± 0.011	0.943 ± 0.025	0.944 ± 0.039	0.966 ± 0.02	0.931 ± 0.013
UniProt P60900 and related entries	0.995 ± 0.035	0.924 ± 0.023	0.898 ± 0.028	0.887 ± 0.038	0.954 ± 0.028	0.903 ± 0.032
VBP1 (UniProt P61758)	0.899 ± 0.06	0.891 ± 0.013	0.888 ± 0.017	0.931 ± 0.057	0.923 ± 0.027	0.852 ± 0.037
UniProt P53396 and related entries	1.02 ± 0.091	0.98 ± 0.076	0.964 ± 0.054	0.929 ± 0.073	0.991 ± 0.048	0.969 ± 0.069
UniProt P62857	0.829 ± 0.12	0.783 ± 0.14	0.736 ± 0.16	0.793 ± 0.23	0.607 ± 0.15	0.684 ± 0.11
UniProt P55072	0.979 ± 0.013	0.949 ± 0.016	0.914 ± 0.016	0.931 ± 0.041	0.932 ± 0.033	0.924 ± 0.048
UniProt P82970	0.891 ± 0.088	0.878 ± 0.045	0.843 ± 0.061	0.921 ± 0.046	0.867 ± 0.02	0.842 ± 0.077
UniProt P56270-2	1.03 ± 0.055	0.995 ± 0.037	1 ± 0.029	1.06 ± 0.025	1.02 ± 0.034	1.01 ± 0.035
UniProt P63220 and related entries	0.882 ± 0.18	0.835 ± 0.19	0.77 ± 0.17	0.822 ± 0.21	0.659 ± 0.13	0.691 ± 0.15
SUB1 (UniProt P53999)	0.843 ± 0.14	0.851 ± 0.1	0.744 ± 0.17	0.95 ± 0.095	0.876 ± 0.015	0.778 ± 0.2
RRP1 (UniProt P56182)	1.07 ± 0.073	1.1 ± 0.028	1.09 ± 0.054	1.11 ± 0.062	1.07 ± 0.0041	1.09 ± 0.066
UniProt P62269	0.854 ± 0.076	0.832 ± 0.097	0.784 ± 0.093	0.726 ± 0.092	0.658 ± 0.12	0.727 ± 0.084
UniProt P84090	1.1 ± 0.055	1.18 ± 0.069	1.24 ± 0.059	1.38 ± 0.12	1.35 ± 0.032	1.38 ± 0.14
UniProt P58557 and related entries	0.997 ± 0.028	0.981 ± 0.03	1.04 ± 0.015	1.14 ± 0.047	1.05 ± 0.14	0.986 ± 0.15
UniProt Q00325 and related entries	0.917 ± 0.12	0.913 ± 0.072	0.883 ± 0.016	0.831 ± 0.1	0.931 ± 0.03	0.987 ± 0.042
P86790 and related entries (UniProt P86791+P86790)	1.02 ± 0.065	1.01 ± 0.038	1.02 ± 0.021	0.974 ± 0.088	1.03 ± 0.033	0.994 ± 0.037
UniProt P54725 and related entries	0.886 ± 0.017	0.919 ± 0.013	0.913 ± 0.018	0.876 ± 0.028	0.961 ± 0.081	0.874 ± 0.063
UniProt P55265 and related entries	1.1 ± 0.029	1.09 ± 0.014	1.11 ± 0.014	1.156 ± 0.0046	1.19 ± 0.02	1.21 ± 0.043
UniProt P98155 and related entries	0.95 ± 0.041	0.978 ± 0.019	0.954 ± 0.039	0.977 ± 0.012	0.964 ± 0.026	0.9518 ± 0.0075
UniProt P54619 and related entries	1.06 ± 0.18	0.97 ± 0.053	0.96 ± 0.034	0.934 ± 0.15	1.02 ± 0.042	0.999 ± 0.033
UniProt P62241	0.866 ± 0.034	0.793 ± 0.099	0.709 ± 0.07	0.693 ± 0.12	0.59 ± 0.073	0.677 ± 0.095

Copied from the entries so far for reference:
Target	NP40-soluble protein abundance (concentration: 1mM)	NP40-soluble protein abundance (concentration: 2mM)	NP40-soluble protein abundance (concentration: 4mM)	NP40-soluble protein abundance (concentration: 6mM)	NP40-soluble protein abundance (concentration: 8mM)	NP40-soluble protein abundance (concentration: 10mM)
UniProt P62072	0.974 ± 0.055	0.971 ± 0.12	1 ± 0.14	1.04 ± 0.052	0.957 ± 0.089	0.918 ± 0.12
NCKAP1L (UniProt P55160)	1.06 ± 0.13	1.02 ± 0.099	0.997 ± 0.065	0.913 ± 0.11	1.04 ± 0.047	0.985 ± 0.07
